Test results reported in PubChem BioAssay AID2685 (National Center for Advancing Translational Sciences (NCATS), 2010).
The whole screen tested about 320,000 compounds, of which about 2,100 (0.66%) were called active. The inconclusive results got no clear call from the source; some entries with a clear call stand among them for comparison. Calls come from the whole dose curve; as a rule, active = well fitted inhibition curve with a large enough effect in the signal ratio, with a control signal flat (not every such curve was filed as active); inconclusive = small, poorly fitted or top-dose-only effect, or effect the other way, or a change in a side signal; inactive = flat fitted curve, though single readings scatter; the % refers to the signal ratio. A potency beside an inconclusive call is a rough fit, not a confirmed value.

test: qHTS Assay for Lipid Storage Modulators in Drosophila S3 Cells; details: BODIPY lipid droplet fluorescence, 18-24 h, cells fed with added oleic acid; lipid storage change, negative = inhibition: at 46.1 µM (top of the series) unless noted
How it was run: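 Drosophila S3 cells got compounds at several concentrations plus oleic acid (400 uM solution). Laser-scanning cytometry with 488 nm excitation read lipid droplets at 500-530 nm and cells at 575-640 nm. Percent activity was relative to 20 uM Triacsin C.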
% is set by controls: 0 for no effect and ±100 for the full control effect; potency is the fitted concentration of half-maximal effect.

Structure (SMILES)	lipid storage change, negative = inhibition	Potency
CCCC1CC(CSc2ncn[nH]2)OC1=O (configuration not stated)	inconclusive: 1.85%	–
COc1ccc(C(=O)NCCC2=CCCCC2)cc1	inconclusive: 18.3%	–
NC(=O)C1CCN(CC(=O)NCc2ccccc2)CC1	–	inconclusive: 9.2 µM [falling, partial curve, poor fit]
O=C(N/N=C/c1ccncc1)c1cc2c(ccc3ccccc32)o1	–	inconclusive: 3.66 µM [activator, full curve, poor fit]
CCN(CC)S(=O)(=O)c1ccc(NC(=O)Cn2c(=O)oc3ccccc32)cc1	inconclusive: -28.7%	–
O=C(CN1CCCCC1)NCCNc1ccc(C(F)(F)F)cc1[N+](=O)[O-]	inconclusive: 7.95%	–
CCN(CCCNC(=O)CNC(=O)Cn1cnc2ccccc2c1=O)c1cccc(C)c1	inconclusive: 34%	–
COc1ccc(S(=O)(=O)N(CC(=O)NN=C2CCN(C)CC2)c2cc(Cl)ccc2OC)cc1OC	inconclusive: 12%	–
Cc1cc(C)nc(N/C(=N\S(=O)(=O)Cc2ccccc2)Nc2ccc(F)c(Cl)c2)n1	inconclusive: 58.5%	–
Cc1nn(Cc2ccc(F)cc2)c(C)c1NC(=O)c1cc(-c2ccco2)on1	–	inconclusive: 0.731 µM [activator, full curve]
Cc1ccc(C)c(N(C)C(=O)c2cc3c(=O)[nH]c4ccc(C)cc4c3s2)c1	inconclusive: 26.4%	–
Cc1cc(C)c2c(N=CN(C)C)c(C(=O)N3CCN(c4ncccn4)CC3)sc2n1	inconclusive: 33.3%	–
O=C(Nc1ccccc1C(=O)O)c1ccc(Br)o1	inconclusive: 11.3%	–
COc1ccccc1CC(=O)NC1CCCc2ccccc21 (configuration not stated)	inconclusive: 11.6%	–
CC1(C)CC[C@]2(C(=O)O)[C@H](O)C[C@]3(C)C(=CCC4[C@@]5(C)C[C@H](O)[C@H](O)[C@@](C)(CO)C5CC[C@]43C)[C@@H]2C1 (some centres not stated)	inconclusive: -22.9%	–
Cc1ccc(S(=O)(=O)N2CCN(Cc3csc(C)n3)CC2)cc1	inconclusive: 1.15%	–
c1ccc(Cc2nn3c(-c4ccncc4)nnc3s2)cc1	inconclusive: 68%	–
CCOC(=O)c1c(-c2ccccc2)csc1NC(=O)COc1ccc2c(C)cc(=O)oc2c1	inconclusive: -10.3%	–
CC(NC(=O)Cc1ccc(F)cc1)c1ccccc1 (configuration not stated)	inconclusive: -12.8%	–
O=C1CC(N2CCN(Cc3ccccc3)CC2)C(=O)N1c1ccccc1 (configuration not stated)	inconclusive: -13.9%	–
COc1cc(/C=C/C(=O)N[C@@H](Cc2c[nH]c3ccccc23)C(=O)O)ccc1O	–	inconclusive: 6.51 µM [activator, single point]
O=c1c(Cl)c2oc3ccccc3nc-2c2ccccc12	–	active: 11.6 µM
Cc1cc(C)cc(N(CC(=O)NC2CCC(C)CC2)S(=O)(=O)c2c(C)[nH]c(=O)[nH]c2=O)c1 (configuration not stated)	inconclusive: -21.6%	–
COC(=O)c1ccccc1NC(=O)C1CCN(S(=O)(=O)c2cc(C)ccc2OC)CC1	inconclusive: -17.4%	–

Structure (SMILES)	lipid storage change, negative = inhibition	Potency
CC(Sc1ccc(Cl)cc1)C(=O)NCC(c1ccco1)N1CCCCC1 (configuration not stated)	–	inconclusive: 6.51 µM [activator, single point]
O=C(O)/C=C/c1cn(Cc2ccccc2)nc1-c1ccccc1	inconclusive: -0.462%	–
CCc1ccc(S(=O)(=O)N2CCN(Cc3ccco3)CC2)cc1	inconclusive: 11.6%	–
COC(=O)C(NC(=O)Nc1ccccc1OC)C(C)C (configuration not stated)	–	inconclusive: 0.0052 µM [falling, full curve, poor fit]
CCOc1ccccc1C(=O)NC1CC2CCCC(C1)N2C1CC1 (configuration not stated)	inconclusive: 21.3%	–
COC(=O)[C@@H]1CC[C@H](C)[C@@H](c2ccc(C)cc2)N1C(=O)c1ccc(/C=N/OC[C@@H](O)COCc2ccco2)cc1	inconclusive: 13.3%	–
COc1ccc(NC(=O)c2ccc(-n3cncn3)c([N+](=O)[O-])c2)cc1	inconclusive: -19.1% [at 9.22 µM]	–
CCOC(=O)C1=C(CN2CCN(C(=O)c3ccco3)CC2)NC(=O)NC1c1ccc(Cl)cc1 (configuration not stated)	–	inconclusive: 0.461 µM [falling, full curve]
C/C(=N\NC(N)=O)C1CC(CC(C)C)C(=O)O1 (configuration not stated)	inconclusive: -28.7%	–
O=C(c1ccc(Oc2ccccc2)cc1)c1nc2c(n1O)CCCC2	–	inconclusive: 29.1 µM [activator, single point]
O=C(CSc1nnc(NC2CCCCC2)s1)Nc1ccc2c(c1)C(=O)c1ccccc1C2=O	inconclusive: 3.39%	–
COc1ccccc1NS(=O)(=O)c1ccc(C)c(NC(=O)NC2CCCCC2)c1	inconclusive: -49.6%	–
Cc1cccc2cc(CN(CC(C)C)S(=O)(=O)c3ccccc3)c(=O)[nH]c12	–	inconclusive: 23.1 µM [falling, partial curve, poor fit]
O=C(COc1ccc(F)cc1)N(Cc1ccco1)C1CCS(=O)(=O)C1 (configuration not stated)	–	inconclusive: 18.4 µM [activator, single point]
COc1ccc(Br)cc1[C@H]1[C@H]2C=CC[C@@H](C)[C@@H]2C(=O)N1Cc1ccccc1	–	inconclusive: 29.1 µM [falling, single point]
Cc1cc(=O)oc2cc(OC(=O)c3nn(C(C)C)c(=O)c4ccccc34)ccc12	inconclusive: -4.38%	–
COC(=O)C(NC(=O)c1ccccc1)c1ccccc1 (configuration not stated)	inconclusive: -19.4%	–
COc1cc(OC)c2c(C)cc(=O)oc2c1	inconclusive: 39%	–
Cc1cccc(C)c1NC(=O)CNC(=O)C(C)N(C)CC(=O)Nc1ccc(F)cc1 (configuration not stated)	–	inconclusive: 8.2 µM [falling, partial curve, poor fit]
COC(=O)c1sc(NC(=O)CSc2nnnn2-c2ccc(C)cc2C)nc1C	–	inconclusive: 20.6 µM [falling, single point]
CC1=C(C(=O)OCc2ccccc2)C(/C=C/c2ccccc2)N2C(=O)CCSC2=N1 (configuration not stated)	–	inconclusive: 16.4 µM [activator, partial curve]
CC1CC(C)CN(c2oc(-c3ccco3)nc2C#N)C1 (configuration not stated)	inconclusive: -0.52%	–
COc1cccc(NC(=O)N2CCCC2C(=O)NCc2ccccc2F)c1 (configuration not stated)	inconclusive: 5.82%	–

One compound at a time (already shown). Order of values: lipid storage change, negative = inhibition | Potency
COC(=O)[C@@H]1CC[C@H](C)[C@@H](c2ccc(C)cc2)N1C(=O)c1ccc(/C=N/OC[C@@H](O)COCc2ccco2)cc1 in the list: inconclusive: 13.3% | –
c1ccc(Cc2nn3c(-c4ccncc4)nnc3s2)cc1 in the list: inconclusive: 68% | –
COC(=O)c1sc(NC(=O)CSc2nnnn2-c2ccc(C)cc2C)nc1C in the list: – | inconclusive: 20.6 µM [falling, single point]
